# Measured values taken from patent US20260102485A1 (CEDARS SINAI MEDICAL CENTER, published 2026).
# These are yes or no findings as the source states them, for the method shown. Some binding calls cover weakened binding; strength is not graded here.
# T1: human TL1A (hTL1A) antigen (human, UniProt O95150 58-251, limits assumed)
# T1 sequence (looked up): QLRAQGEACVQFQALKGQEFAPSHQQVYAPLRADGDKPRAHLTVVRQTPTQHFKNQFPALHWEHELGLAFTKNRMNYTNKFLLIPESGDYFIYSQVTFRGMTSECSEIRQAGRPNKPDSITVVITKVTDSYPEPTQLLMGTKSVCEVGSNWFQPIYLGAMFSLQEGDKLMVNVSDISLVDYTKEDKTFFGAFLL
# T2: murine TL1A (murine, UniProt Q5UBV8 94-252, limits assumed)
# T2 sequence (looked up): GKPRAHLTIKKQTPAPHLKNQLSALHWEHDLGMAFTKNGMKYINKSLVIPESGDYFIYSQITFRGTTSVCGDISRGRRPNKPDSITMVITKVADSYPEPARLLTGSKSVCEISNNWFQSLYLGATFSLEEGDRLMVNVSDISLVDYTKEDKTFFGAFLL
# Legend:
# [1] = biological target: T1, human TL1A (hTL1A) antigen; assay: MSD electrochemiluminescence plate assay, antibody titrated on coated human TL1A (positive control)
# [2] = biological target: T1, human TL1A (hTL1A) antigen; assay: summary statement (soluble TL1A)
# murine TL1A [3] = biological target: T2, murine TL1A; assay: MSD plates coated with murine TL1A
# murine TL1A [4] = biological target: T2, murine TL1A; assay: MSD electrochemiluminescence plate assay, antibody titrated on plates coated with murine TL1A
# Protocol: Anti-human TL1A monoclonal antibodies 9E12E5 and 5C3D11 neutralize the activity of human TL1A in vitro. […] MSD plates were coated with murine TL1A and incubated with various concentrations of 5C3D11 or 9E12E5 to evaluate the ability of the antibody to recognize murine TL1A, as shown in FIG. 6. Human TL1A was included as a positive control. 5C3D11 recognizes murine TL1A in a concentration dependent manner. The binding profile of both the 5C3D11 and 9E12E5 antibodies were assessed using a TL1A transfected HEK293 cell line and compared to the untransfected parental HEK293 cell line. Fluorescent staining of the anti-TL1A antibodies in TL1A expressing HEK293 cells is compared to the untransfected parental HEK293 cells, as shown in FIG. 7.
binding [1],binding [2],binding (murine TL1A [3]),binding (murine TL1A [4]),Binder
binds,binds,,,"9E12E5 (antibody, V domains shown, Mouse hybridoma monoclonal antibody; also called 684842-6; anti-TL1A antibody 9E12E5) VH: QVHLQQSGPELVKPGASVKLSCKASGYTFTKYDINWVRQRPEQGLEWIGWIFPGDGRTDYNEKFKGKATLTTDKSSSTAYMEVSRLTSEDSAVYFCARYGPAMDYWGQGTSVTVAS VL: DVLMTQTPLSLPVSLGDQASISCRSSQTIVHSNGDTYLDWFLQKPGQSPKLLIYKVSNRFSGVPDRFSGSGSGTDFTLKISRVEAEDLGVYYCFQGSHVPYTFGGGTKLEIK"
binds,binds,binds,binds,"5C3D11 (antibody, V domains shown, Mouse hybridoma monoclonal antibody; also called 684842-3; anti-TL1A antibody 5C3D11) VH: EVQLQQSGAELVKPGASVKLSCTASGFDIQDTYMHWVKQRPEQGLEWIGRIDPASGHTKYDPKFQVKATITTDTSSNTAYLQLSSLTSEDTAVYYCSRSGGLPDVWGAGTTVTVSS VL: QIVLSQSPAILSASPGEKVTMTCRASSSVSYMYWYQQKPGSSPKPWIYATSNLASGVPDRFSGSGSGTSYSLTISRVEAEDAATYYCQQWSGNPRTFGGGTKLEIK"
